Some of the results follow.
These sequences were tested against T1, OsSMF1 (Oryza sativa, UniProt Q6ZLB0 1-436) (assay: protein-binding microarray (RPBM); PBS, 2% BSA, 51.3 ng/ul salmon testes DNA, 50 uM zinc acetate, 200 nM TF, 25 C, 1 h; high values mean tight binding). Details: protein: recombinant; tags: N-terminal polyhistidine and DsRed monomer fusion (pET32a); chain copies: 2; label: CyDye5-dUTP incorporated in the synthesized complementary strand; 3' TTTTT single-stranded linker to array surface; dsDNA, one strand shown.
T1 sequence: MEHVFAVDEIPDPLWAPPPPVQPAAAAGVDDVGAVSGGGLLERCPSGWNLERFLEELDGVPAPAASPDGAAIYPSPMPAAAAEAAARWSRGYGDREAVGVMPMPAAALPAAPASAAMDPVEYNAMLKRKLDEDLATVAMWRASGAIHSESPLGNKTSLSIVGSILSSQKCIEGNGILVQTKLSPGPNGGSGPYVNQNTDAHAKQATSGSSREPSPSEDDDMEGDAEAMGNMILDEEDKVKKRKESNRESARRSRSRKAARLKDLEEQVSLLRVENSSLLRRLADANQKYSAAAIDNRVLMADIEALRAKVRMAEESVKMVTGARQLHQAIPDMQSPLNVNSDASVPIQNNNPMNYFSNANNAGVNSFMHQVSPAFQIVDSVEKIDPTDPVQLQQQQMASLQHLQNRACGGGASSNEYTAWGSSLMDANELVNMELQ
Procedure, shortened: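 The binding signal is fluorescence intensity per feature, in arbitrary units, read on an Axon 4000B scanner. Polyhistidine- and DsRed-tagged transcription factors (N-terminal fusions) from E. coli BL21-CodonPlus were purified on Ni–NTA and applied at 200 nM for 1 h at 25 °C to a double-stranded, BSA-blocked custom Agilent array in buffer with 50 µM zinc acetate.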
“CGATCGGTGTTCCACGGTGAGTGTTAGTTTCTCTTTGTGCCGGAGTCACCTAGTGCAG” was tested, and the binding signal was 13500 fluorescence intensity (a.u.).
“TGTCCAGCAGCCTCCCACAACTCCGCTCTCACCATCACCCCGGAGTCACCTAGTGCAG” was tested, and the binding signal was 32400 fluorescence intensity (a.u.).
In the case of “GAGAGAATCTTGGAACGATTAGTAGTACATAAAGTAGAATCGGAGTCACCTAGTGCAG”, the binding signal is reported as 3650 fluorescence intensity (a.u.).
For “GAGGGCCACGTGGCGCCTGGGGCAACCCTCTCCCTCTAGTCGGAGTCACCTAGTGCAG”, the binding signal was 17300 fluorescence intensity (a.u.).
In the case of “CGCGGCAAGGTCGGCTGCCAGAGAGCGCGCGTGAAGGGGACGGAGTCACCTAGTGCAG”, the binding signal is reported as 24800 fluorescence intensity (a.u.).
“TGCCACCGTGGCGGCCGGGCCGATCCCCTAGCTGACGTGGCGGAGTCACCTAGTGCAG” was tested, and the binding signal was 41900 fluorescence intensity (a.u.).
“TGAGTTCATGTGCCGGTTCCAGCTCAACCTAGGCCAGAGGCGGAGTCACCTAGTGCAG” was tested, and the binding signal was 4120 fluorescence intensity (a.u.).
With “AAATATCTTTTCACATGTGGACTTATTAAGGAACCACTTCCGGAGTCACCTAGTGCAG” the binding signal was 12600 fluorescence intensity (a.u.).
For “GTAAAATCATATATAGAAAGTAGATAATTTTGTATGGGTTCGGAGTCACCTAGTGCAG”, the binding signal was 10500 fluorescence intensity (a.u.).
With “ATGCTACGTTTGCTATCCTCTCCCACGTACTCCGTAGAGTCGGAGTCACCTAGTGCAG” the binding signal was 3600 fluorescence intensity (a.u.).
With “AAATCAACCATCTTTCCTCAAACGTGTTCATTATCTAAACCGGAGTCACCTAGTGCAG” the binding signal was 3960 fluorescence intensity (a.u.).
For “CCCACACACAAAAGCCGCAAAGGACGATGCCACACACACTCGGAGTCACCTAGTGCAG”, the binding signal was 3740 fluorescence intensity (a.u.).
In the case of “ATATCGATATACACGTTATGATACTAACAAACAGATTTTCCGGAGTCACCTAGTGCAG”, the binding signal is reported as 3600 fluorescence intensity (a.u.).
“CGGCCCCTCTCGCTGCCACGTTTTAAGCATCCAAACTGCGCGGAGTCACCTAGTGCAG” was tested, and the binding signal was 5160 fluorescence intensity (a.u.).
With “CCTATAAACACTCGTAAGCTGCCATGTGACACTCCTACAACGGAGTCACCTAGTGCAG” the binding signal was 3840 fluorescence intensity (a.u.).
In the case of “TCTAGATGCACTTATAGAATGACATATCAGTGTTAGTAAGCGGAGTCACCTAGTGCAG”, the binding signal is reported as 3330 fluorescence intensity (a.u.).
In the case of “GGAGCACGCCACATGTCAGCACCCACGACCACGGCCACGCCGGAGTCACCTAGTGCAG”, the binding signal is reported as 5760 fluorescence intensity (a.u.).
With “AATTGTCCCTGATTGACACCTCTTACTTGACCCTTCTTTCCGGAGTCACCTAGTGCAG” the binding signal was 3490 fluorescence intensity (a.u.).
In the case of “CCACATGTACTAGTGGGCCGGCTACCAGCCCACGTGCCACCGGAGTCACCTAGTGCAG”, the binding signal is reported as 4300 fluorescence intensity (a.u.).
With “TTACACATATAGATCTGTCATCTTGGTTTAATGATTCGTACGGAGTCACCTAGTGCAG” the binding signal was 5340 fluorescence intensity (a.u.).
With “GACTTCTCGTCCTCCCTGTTGCAGAGGCTTCTCCGGCGAGCGGAGTCACCTAGTGCAG” the binding signal was 4780 fluorescence intensity (a.u.).
With “ATAATGGAGGCGGATAACAGATGACGACACGGCCGGAACGCGGAGTCACCTAGTGCAG” the binding signal was 4560 fluorescence intensity (a.u.).
For “TATATGTACGTAGCCCATGACGCGCACGCCTTCTTGGTGACGGAGTCACCTAGTGCAG”, the binding signal was 3600 fluorescence intensity (a.u.).
With “CTTACTTACATCTGCATCATTCAGTCTACTAACCACAATACGGAGTCACCTAGTGCAG” the binding signal was 3280 fluorescence intensity (a.u.).
In the case of “CCATCGCTTCGCCATGGCGACCGGCTTGCCGGAGGAAGAGCGGAGTCACCTAGTGCAG”, the binding signal is reported as 5610 fluorescence intensity (a.u.).
“AGGTATATGGTGTACCTGCGTCATCTGTTGTTCATGCTGACGGAGTCACCTAGTGCAG” was tested, and the binding signal was 6250 fluorescence intensity (a.u.).
In the case of “CTACCGAACACTGCCATCCAGCAGACCAATTTGCAACGATCGGAGTCACCTAGTGCAG”, the binding signal is reported as 18300 fluorescence intensity (a.u.).
With “TAGCTAATCCTCTTCAACACGCAGCCACCGTGTCGACGCCCGGAGTCACCTAGTGCAG” the binding signal was 3550 fluorescence intensity (a.u.).
For “ATGCACTTCCTGTCACGGTCCGGCCCATCCTAGCTGCCGGCGGAGTCACCTAGTGCAG”, the binding signal was 3290 fluorescence intensity (a.u.).
In the case of “CGAAACGATAGGGCCAACAATGACACCTACACTTCTTCCGCGGAGTCACCTAGTGCAG”, the binding signal is reported as 5100 fluorescence intensity (a.u.).
With “CGCGGCCATCGCAGTCGCCCAGTCATTGTCCCACCGCCTCCGGAGTCACCTAGTGCAG” the binding signal was 4320 fluorescence intensity (a.u.).
For “GCAGTTCTTTCGATTCTACTTGGCGACGACATCCATGTGTCGGAGTCACCTAGTGCAG”, the binding signal was 3240 fluorescence intensity (a.u.).
For “TTATTCGATATATGATGTGTAAGCTACTTGATGCAAGCCACGGAGTCACCTAGTGCAG”, the binding signal was 3640 fluorescence intensity (a.u.).
“ATATAAGATGTAACTATTACGATGTTTCATGATACAAGTACGGAGTCACCTAGTGCAG” was tested, and the binding signal was 15000 fluorescence intensity (a.u.).
“GAGATCGTCTATTTCTACCAAGAGGAGCCGAGCCGCTGCCCGGAGTCACCTAGTGCAG” was tested, and the binding signal was 7740 fluorescence intensity (a.u.).
With “TGCCGCGTCGTCGCTCGTCGTCACCGATCGTGCGCACTCCCGGAGTCACCTAGTGCAG” the binding signal was 5580 fluorescence intensity (a.u.).
For “AGCCAACGCCGCGGGATACACGCCACGTCAGAGCATCCGCCGGAGTCACCTAGTGCAG”, the binding signal was 18000 fluorescence intensity (a.u.).
“TCCAGGTTCCAGCACCATCAGCTGACAAAGTGTACAAGAACGGAGTCACCTAGTGCAG” was tested, and the binding signal was 3310 fluorescence intensity (a.u.).
In the case of “TAGGGGAGCCTCGACACGACGCCGCTGGCGTGGCGCGTCCCGGAGTCACCTAGTGCAG”, the binding signal is reported as 9370 fluorescence intensity (a.u.).
“AATGAAAAGAAAATCTTACCAATGCTGCGATGCTGACACCCGGAGTCACCTAGTGCAG” was tested, and the binding signal was 3580 fluorescence intensity (a.u.).
With “GGTCGTTTGTTCTTTTGTCTTGCCTATTATGCTCCGTCATCGGAGTCACCTAGTGCAG” the binding signal was 4640 fluorescence intensity (a.u.).
In the case of “CACATCTCTAGACGGATCGGCCACGCTACATCCATCTTAGCGGAGTCACCTAGTGCAG”, the binding signal is reported as 3980 fluorescence intensity (a.u.).
“TTTCCGTCTGACCAGCGAGCCCGTCATCCGTCTTTGCCGCCGGAGTCACCTAGTGCAG” was tested, and the binding signal was 4250 fluorescence intensity (a.u.).
For “TATGAGTTGCATATTTTAAGTGGCAACTGTTAATCTCAGCCGGAGTCACCTAGTGCAG”, the binding signal was 11100 fluorescence intensity (a.u.).
With “GGGAGGATGGCCCACACGTCAGTGATAGAGGGTCCGTTCCCGGAGTCACCTAGTGCAG” the binding signal was 6000 fluorescence intensity (a.u.).
For “AACGTGAACCTGTTGTCCCTCGTGGCAGCTACCCACGCCTCGGAGTCACCTAGTGCAG”, the binding signal was 7260 fluorescence intensity (a.u.).
In the case of “CTCGTGACGTGACGTGCTGGTGTCGTCCCCTCCTCATCTTCGGAGTCACCTAGTGCAG”, the binding signal is reported as 12700 fluorescence intensity (a.u.).
“AATTAGTGCATAAACCGCAGGTTTGACTCACATGTTATATCGGAGTCACCTAGTGCAG” was tested, and the binding signal was 3360 fluorescence intensity (a.u.).
In the case of “TAAATGAAACTTTTGTCTTGAGTTAACACCGTCATCTTGCCGGAGTCACCTAGTGCAG”, the binding signal is reported as 3480 fluorescence intensity (a.u.).
In the case of “GGTAACTTCTGCATGAGCCCGTGATGTGTGGGGCCCACATCGGAGTCACCTAGTGCAG”, the binding signal is reported as 3450 fluorescence intensity (a.u.).
For “TTCATGTGGCTGCTCTTCCTGAGCCATAGGATCGGCGGAACGGAGTCACCTAGTGCAG”, the binding signal was 35000 fluorescence intensity (a.u.).
In the case of “GACTCGAATCCGTGACACGTAATGTGCCTTTCACGTGCCCCGGAGTCACCTAGTGCAG”, the binding signal is reported as 13500 fluorescence intensity (a.u.).
With “TAGCAGATCTATTTCTTGACACGTAACCTTACTTTCCATCCGGAGTCACCTAGTGCAG” the binding signal was 12300 fluorescence intensity (a.u.).
“GCATGTGATTAATCGGTGATTATGTCTTAATGGAAGGAAACGGAGTCACCTAGTGCAG” was tested, and the binding signal was 3890 fluorescence intensity (a.u.).

Source: paper PMC7819943, “Rice protein-binding microarrays: a tool to detect cis-acting elements near promoter regions in rice”
